Amino acid sequences for entries named in this document (tags omitted). A change or cut given only in a name is not applied to a line headed by its entry.
UniProt P18054: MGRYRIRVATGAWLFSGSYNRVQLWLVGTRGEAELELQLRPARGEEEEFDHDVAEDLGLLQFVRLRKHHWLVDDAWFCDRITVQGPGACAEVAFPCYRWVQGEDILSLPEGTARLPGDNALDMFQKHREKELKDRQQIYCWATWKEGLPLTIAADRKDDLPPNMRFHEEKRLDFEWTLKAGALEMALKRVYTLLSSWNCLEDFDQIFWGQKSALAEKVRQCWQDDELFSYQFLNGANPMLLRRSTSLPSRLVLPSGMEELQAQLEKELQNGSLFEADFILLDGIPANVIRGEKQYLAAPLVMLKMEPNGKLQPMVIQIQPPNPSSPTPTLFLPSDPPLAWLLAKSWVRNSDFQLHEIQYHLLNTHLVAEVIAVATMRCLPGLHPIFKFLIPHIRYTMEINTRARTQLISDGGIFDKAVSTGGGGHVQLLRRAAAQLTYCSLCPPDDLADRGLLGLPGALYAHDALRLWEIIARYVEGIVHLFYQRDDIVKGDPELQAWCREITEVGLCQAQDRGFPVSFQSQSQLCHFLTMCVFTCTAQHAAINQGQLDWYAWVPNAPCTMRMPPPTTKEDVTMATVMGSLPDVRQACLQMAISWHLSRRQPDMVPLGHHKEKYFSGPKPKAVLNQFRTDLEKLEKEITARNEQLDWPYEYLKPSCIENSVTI

In all, about 580,000 compounds went through this assay and about 6,100 (1.1%) were called active. The inconclusive results got no clear call from the source; some entries with a clear call stand among them for comparison. The call rests on the fitted dose curve; in most records, active means well fitted inhibition curve with a large enough effect; inconclusive means small, poorly fitted or top-dose-only effect, or another doubt; inactive means no such curve, though single readings can be large or run the other way. Potencies beside an inconclusive call are fits to weak or partial responses and may not hold up.
What follows are compounds tested against Polyunsaturated fatty acid lipoxygenase ALOX12 (Homo sapiens) (UniProt P18054) (assay: Primary qHTS assay for inhibitors of human arachidonate 12S-lipoxygenase (ALOX12): Round 2). Settings: purified 12hLO, xylenol orange hydroperoxide absorbance; activity change, negative = inhibition: at 108 µM (top of the series) unless noted.
Summary of the method: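 Purified human 12hLO (150 nM final) in 25 mM Hepes, 0.01% Triton X-100, pH 7.0 was preincubated 15 min at room temperature with compound. Then 40 uM arachidonic acid was added, 30 min. Hydroperoxide was read by Fe-XO absorbance ratio 573/405 nm.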
With `Cc1ccc(C)c(OCCn2c(C3CC(=O)N(Cc4ccc(F)cc4)C3)nc3ccccc32)c1` (stereo not given) the Potency was inconclusive: 63.1 µM [inhibitor, partial curve, poor fit].
With `COc1cccc(CNc2nc(NC(C)C)nc3ccsc23)c1` the Potency was inconclusive: 79.4 µM [inhibitor, partial curve, poor fit].
In the case of `COc1ccc2c3c(n(C)c2c1)[C@@H](CO)N(C(=O)NC1CCCCC1)CC31CCN(C)CC1`, the Potency is reported as inconclusive: 100 µM [inhibitor, single point].
In the case of `C[C@@H]1CN(c2ccc(N3CCNC[C@H]3C)cc2C#N)C[C@H](C)O1`, the Potency is reported as inconclusive: 44.7 µM [inhibitor, partial curve, poor fit].
In the case of `CCN1CCN(C(=O)c2ccc3c(c2)N(Cc2cccc(Cl)c2)C(=O)c2ccccc2S3=O)CC1` (stereo not given), the Potency is reported as inconclusive: 89.1 µM [inhibitor, partial curve, poor fit].
`CC(=O)N1CCN(c2ccccc2NC(=O)COc2ccccc2C)CC1` was tested, and the “activity change, negative = inhibition” value was inactive: 0.0474%.
`c1ccc(COc2ccc(OCCN3CCCC3)cc2)cc1` was tested, and the “activity change, negative = inhibition” value was inactive: -3.75%.
`Cc1ccc(-c2ccc(OC(=O)c3ccc(C)c(C)c3)cc2)cc1` was tested, and the “activity change, negative = inhibition” value was inactive: -2.43%.
With `COc1ccccc1NC(=O)COC(=O)c1ccccc1SCC(=O)N1CCCC1` the Potency was inconclusive: 15.8 µM [inhibitor, full curve, poor fit].
For `CCOc1ccc2nc(N3CCN(C(=O)c4ccc(S(=O)(=O)CC)cc4)CC3)sc2c1`, the “activity change, negative = inhibition” value was inactive: -19.4%.
`C=CCNC(=O)CN1c2cccc3cccc(c23)S1(=O)=O` was tested, and the Potency was inconclusive: 35.5 µM [inhibitor, partial curve, poor fit].
For `CC(C)C(NC(=O)c1ccccc1)C(C)C`, the “activity change, negative = inhibition” value was inactive: 0.129%.
For `OCC1(Cc2cccc(Cl)c2)CCCN(Cc2nc(-c3ccc(F)cc3)cs2)C1` (stereo not given), the Potency was inconclusive: 79.4 µM [inhibitor, partial curve].
`COc1ccc(C2CCCCCN2C(=O)NCCn2ccnc2)cc1` (stereo not given) was tested, and the “activity change, negative = inhibition” value was inactive: -0.585%.
With `Cc1ccc(/C=C/C(=O)Nc2nc(-c3cccs3)ns2)cc1` the Potency was inconclusive: 112 µM [inhibitor, partial curve, poor fit].
`CN1CCN(c2ccc(C(=O)c3ccc(Br)cc3)cc2[N+](=O)[O-])CC1` was tested, and the “activity change, negative = inhibition” value was inactive: -11.6%.
In the case of `Cc1ccsc1/C=C(/C#N)C(N)=S`, the Potency is reported as inconclusive: 50.1 µM [inhibitor, partial curve, poor fit].
`CC(C)(C)c1nnc2sc(SCC(=O)c3ccccc3)nn2c1=O` was tested, and the “activity change, negative = inhibition” value was inactive: 53.6%.
`Cc1cccc(Oc2nc3ccccn3c(=O)c2/C=C(\C#N)C(=O)NC2CCS(=O)(=O)C2)c1C` (stereo not given) was tested, and the Potency was inconclusive: 56.2 µM [inhibitor, partial curve, poor fit].
With `O=[N+]([O-])c1ccc(C2=Nc3cc(Cl)ccc3OC2)cc1` the Potency was inconclusive: 89.1 µM [inhibitor, partial curve, poor fit].
With `COC(=O)c1cc(OC)c(OC)cc1NC(=O)CCCCCN1C(=O)CCC1=O` the Potency was inconclusive: 28.2 µM [inhibitor, single point].
With `CCN(C(=O)CCc1ccccc1)C1CC(=O)NC1=O` (stereo not given) the “activity change, negative = inhibition” value was inactive: 5.98%.
For `CCn1nc(C(=O)NCc2ccccc2F)c2ccccc2c1=O`, the “activity change, negative = inhibition” value was inactive: 15.7%.
With `COc1ccc(C(=O)N2CCCC(C(=O)N3CCN(c4ccccc4)CC3)C2)cc1` (stereo not given) the Potency was inconclusive: 112 µM [inhibitor, single point].
`COc1ccc(Cn2c(=O)[nH]c3cc(C(=O)NCCC(C)C)ccc3c2=O)cc1` was tested, and the “activity change, negative = inhibition” value was inactive: 0%.
In the case of `CSc1ccc(C(C)NC(=O)C2CC=CCC2)cc1` (stereo not given), the Potency is reported as inconclusive: 112 µM [inhibitor, partial curve, poor fit].
With `CCC(C)NCCOc1ccc(C(C)(C)c2ccccc2)cc1` (stereo not given) the Potency was inconclusive: 0.562 µM [inhibitor, full curve, poor fit].
For `CCCN(C)Cc1ccc(C(=O)OC)cc1`, the “activity change, negative = inhibition” value was inactive: 1.61%.
For `O=c1c2c(nc3cc(-c4ccccc4Cl)[nH]n13)CCS2`, the Potency was active: 39.8 µM.
`Cn1c(=O)n(Cc2ccccc2F)c(=O)c2c1ncn2Cc1ccccc1` was tested, and the Potency was inconclusive: 112 µM [inhibitor, single point].
`CCOc1ccc(C(=O)Nc2ccc(N3CCN(C(=O)c4ccco4)CC3)cc2)cc1Br` was tested, and the Potency was inconclusive: 0.224 µM [inhibitor, full curve, poor fit].
`CCCCNS(=O)(=O)c1ccc2nc(SCC(=O)c3ccccc3OC)[nH]c2c1` was tested, and the “activity change, negative = inhibition” value was inactive: -11.7%.
For `CCOC(=O)C(NC(=O)c1ccc(C(F)(F)F)nc1)C(=O)OCC`, the “activity change, negative = inhibition” value was inactive: -0.3%.
`CCc1ccc(S(=O)(=O)Nc2ccc(O)c3c(=O)cc(-c4ccccc4Cl)oc23)cc1` was tested, and the “activity change, negative = inhibition” value was inactive: 4.41%.
In the case of `Nc1nc(COC(=O)CCC(=O)c2ccc(Cl)cc2)nc(Nc2ccccc2)n1`, the Potency is reported as inconclusive: 100 µM [inhibitor, single point].
With `Cc1ccccc1C(=O)NC1CCCN(Cc2ccccc2F)C1` (stereo not given) the Potency was inconclusive: 28.2 µM [inhibitor, single point].
In the case of `Cc1ccc(-c2noc([C@@H]3C[C@H](NS(=O)(=O)c4ccccc4)CN3C)n2)cc1`, the Potency is reported as inconclusive: 25.1 µM [inhibitor, full curve].
For `Cc1cccc(C(=O)NC2CC3CCCC(C2)N3C(=O)Nc2ccccc2)c1` (stereo not given), the “activity change, negative = inhibition” value was inactive: -2.87%.
`NC(=O)[C@@H]1CC2(CC(c3cccc(NC(=O)CC(c4ccccc4)c4ccccc4)c3)=NO2)CN1C(=O)c1ccc(Cl)cc1` (stereo not given in full) was tested, and the Potency was inconclusive: 22.4 µM [inhibitor, full curve, poor fit].
For `Cc1c(-c2nc(-c3cccnc3)no2)cccc1[N+](=O)[O-]`, the “activity change, negative = inhibition” value was inactive: -2.01%.
With `NC(CCC(=O)NC(CS)C(=O)NCC(=O)O)C(=O)O` (stereo not given) the “activity change, negative = inhibition” value was inactive: 14.2%.
`CC(CN1CCOCC1)OC(=O)c1ccccc1` (stereo not given) was tested, and the Potency was inconclusive: 112 µM [inhibitor, single point].
`Cc1nonc1C(=O)N/N=C/c1ccc([N+](=O)[O-])o1` was tested, and the “activity change, negative = inhibition” value was inactive: -12.8%.
For `Cc1cc(C)c(C)c(OCCCCn2cnc3ccccc3c2=O)c1`, the “activity change, negative = inhibition” value was inactive: -8.27%.
With `Cc1ccc(NC(=O)CN(C)C(=O)CSc2ccccc2F)cc1` the Potency was inconclusive: 50.1 µM [inhibitor, partial curve, poor fit].
In the case of `O=C(CCCSc1nc2ccccc2[nH]1)N1CCN(c2ccccc2)CC1`, the Potency is reported as inconclusive: 3.98 µM [inhibitor, full curve, poor fit].
In the case of `O=C(CSc1nc2cc(S(=O)(=O)N3CCCCC3)ccc2o1)N1CCc2ccccc21`, the Potency is reported as inconclusive: 50.1 µM [inhibitor, partial curve, poor fit].
In the case of `CCCn1nc(C(=O)N2CCc3ccccc3C2)c2ccccc2c1=O`, the Potency is reported as “inactive”.
`O=C(O)C1Nc2ccc(C(F)(F)F)cc2C2OCCC12` (stereo not given) was tested, and the “activity change, negative = inhibition” value was inactive: 8.52%.
For `CNC(=O)COC(=O)c1c2c(nc3ccccc13)CCC2`, the Potency was inconclusive: 56.2 µM [inhibitor, partial curve, poor fit].
With `COC(=O)c1cc2ccsc2n1CC(=O)N(C)c1ccccc1` the Potency was inconclusive: 44.7 µM [inhibitor, partial curve, poor fit].
For `OC(CSc1ccc(F)cc1)CN1CCN(c2ccccc2)CC1` (stereo not given), the Potency was inconclusive: 3.98 µM [inhibitor, single point].
With `O=C(NCc1ccccc1Cn1cccn1)c1cn[nH]c1-c1ccc(F)cc1` the “activity change, negative = inhibition” value was inactive: 23.7%.
`N#Cc1ccc(-c2nc3ccc(Br)cn3c2Cc2ccccc2)cc1` was tested, and the Potency was inconclusive: 11.2 µM [inhibitor, full curve].
In the case of `CCC(C(=O)NC1CCCC1)n1c(-c2ccncc2)nc2ccccc21` (stereo not given), the “activity change, negative = inhibition” value is reported as inactive: 31.1%.
`COc1ccccc1NC(=O)c1ccc(NC(=O)Cn2nc(C(=O)O)c3ccccc3c2=O)cc1` was tested, and the “activity change, negative = inhibition” value was inactive: -15.8%.
For `CC1(C)CC(=O)C2=C(C1)N(Cc1ccccc1)C(CCC1CCCCC1)=NC2(C(F)(F)F)C(F)(F)F`, the Potency was inconclusive: 5.62 µM [inhibitor, full curve, poor fit].
With `Cc1ccc(-c2cc(-c3ccccc3C)[nH]n2)c(O)c1` the Potency was inconclusive: 112 µM [inhibitor, single point].
With `CCOc1ccc(S(=O)(=O)Nc2cccc(C(=O)N(C)CC(=O)Nc3ccc(OC)cc3)c2)cc1` the “activity change, negative = inhibition” value was inactive: 10.1%.
In the case of `CC(C)(C)C(=O)Cn1c(=N)n(Cc2ccccc2Cl)c2ccccc21`, the Potency is reported as inconclusive: 44.7 µM [inhibitor, partial curve, poor fit].
With `Cc1ccccc1-n1c(-c2csc(C)c2C)n[nH]c1=S` the Potency was inconclusive: 44.7 µM [inhibitor, partial curve].
With `CCc1c(C)c2cc(Cl)c(O)c(CN3CCCC3)c2oc1=O` the Potency was inconclusive: 44.7 µM [inhibitor, partial curve, poor fit].
In the case of `C[C@@H]1CN([C@H](C)CO)C(=O)c2cc(Br)cnc2O[C@H]1CN(C)C(=O)c1ccccc1`, the Potency is reported as inconclusive: 35.5 µM [inhibitor, single point].
For `CCOC(=O)c1ccoc1COC(=O)c1[nH]c(C)c(C(=O)OC)c1C`, the “activity change, negative = inhibition” value was inactive: -19.6%.
With `CC1CN(C(=O)c2cc3cc(Cl)ccc3[nH]2)CC(C)O1` (stereo not given) the Potency was inconclusive: 39.8 µM [inhibitor, partial curve, poor fit].
`COc1ccc2c(C)c(CCC(=O)NCc3ccc(C)cc3)c(=O)oc2c1` was tested, and the activity change, negative = inhibition was inconclusive: -41.5% [inhibitor].
`COC(=O)c1c(-c2ccco2)csc1NC(=O)C1CC=CCC1C(=O)O` (stereo not given) was tested, and the Potency was inconclusive: 50.1 µM [inhibitor, partial curve, poor fit].
With `COC(=O)/C(=C\c1c(OC)cc(OC)cc1OC)C(=O)c1ccc2c(c1)OCO2` the Potency was inconclusive: 44.7 µM [inhibitor, single point].
`CCOc1ccc(NC(=O)C2CCN(c3nc4ccccc4[nH]3)CC2)cc1` was tested, and the Potency was inconclusive: 224 µM [inhibitor, partial curve, poor fit].
With `COc1ccccc1-c1cnc(C(O)c2ccc(Cl)c(Cl)c2)[nH]1` (stereo not given) the “activity change, negative = inhibition” value was inactive: -18.5%.

Source: PubChem BioAssay AID1671190 (National Center for Advancing Translational Sciences (NCATS), 2021)
On the % scale 0 is the no-effect control and ±100 the full control effect; potency means the concentration at half of the fitted maximal effect.
